# Record: PubChem BioAssay AID743454 (Peter MacCallum Cancer Centre, 2014)
# Aim: 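Knock-downs lowering viability or raising caspase 3/7 activity in vorinostat-treated resistant cells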 (primary screen)
# Cell system: human HCT116-VR colon cancer cells, selected for vorinostat resistance
# Reagent: siRNA pool against human genes, 40 nM siRNA pool
# Timing: vorinostat for 24 h, read-out about 72 h after transfection
# Treatment: vorinostat at 2.5 µM final
# Measurement: 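Cell viability by CellTiter-Fluor and caspase 3/7 activity by luminescence, each scaled to mock wells per plate, duplicates averaged, then robust z-scored over all plates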
# Direction: viability robust z-score: higher = more viable cells than screen typical; caspase robust z-score: higher = more caspase 3/7 activity than screen typical
# Active means: 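a knock-down is a hit when classed RV1 or RV2 for lowered viability, or CA1 or CA2 for caspase activation; those lethal without drug were dropped; hits were retested singly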
# This is an unselected part of about 18,000 deposited reagents. In the full data, 450 (2.5%) were called active. 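Single biological run; no consistent viability z cut-off exists, so the class columns, not z-scores, define the calls.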 Unmarked entries are inactive.
gene,PubChem SID,viability hit class,caspase hit class,viability robust z-score,caspase robust z-score
SLC10A1,SID152154168,no change,no change,-2.08,-1.05
RAET1E,SID134320854,no change,no change,0.18,-0.36
ATP6V0B,SID135622013,no change,no change,-0.51,0.76
HMGB4,SID135623198,no change,no change,-0.39,-0.29
EIF4A1,SID135623929,RV2 (reduced viability) (active),no change,-3.01,-0.59
IGSF9,SID134318239,no change,no change,-0.88,-0.46
CRYBA4,SID152149715,no change,no change,0.19,1.82
CHMP4B,SID134321965,no change,no change,-2.17,4.61
KCTD5,SID152151848,no change,no change,-0.85,0.86
TPM3,SID152152018,no change,no change,0.3,-0.48
WDR5,SID152150036,no change,no change,-0.49,0.26
LTBP3,SID134318321,no change,no change,-0.82,4.43
PTPN4,SID134314224,no change,no change,0.32,0.55
ADRA1A,SID135620983,no change,no change,0.23,-0.23
USH1G,SID134323074,no change,no change,-0.1,3.22
ZNF25,SID134320013,no change,no change,-0.7,-1.35
R3HCC1L,SID152155106,no change,no change,0.56,-0.59
DEFB107B,SID135625589,no change,no change,0.2,0.27
PRAF2,SID152155329,no change,no change,-0.37,0.01
PRSS8,SID152154565,no change,no change,-0.94,0.2
MAPK12,SID152156302,no change,no change,0.92,0.57
NOL8,SID134320944,no change,no change,-1.06,-0.91
HASPIN,SID152153141,no change,no change,-0.72,-0.04
CD180,SID134323763,no change,no change,-1.18,2.9
LYPD4,SID134322366,no change,no change,1.21,-0.3
B4GALT2,SID152147485,no change,no change,-0.01,0.03
RAB42,SID134313971,no change,no change,-1.06,-0.38
CDC5L,SID134315590,no change,no change,-3.07,3.16
GPR4,SID134311012,no change,no change,0.04,-0.32
RPL35,SID152152433,no change,no change,-5.78,-0.8
C1QC,SID152151418,no change,no change,0,-0.82
TACR3,SID134311165,no change,no change,0.48,0.34
ESRRA,SID134309854,no change,no change,-0.16,-0.5
GAREM1,SID134317950,no change,no change,-1.86,0.82
CCNJL,SID152149392,no change,no change,-3.66,1.46
SLC18A2,SID135621367,no change,no change,0.1,-0.9
LOXL4,SID152156555,no change,no change,1.7,-0.38
IQCE,SID152154272,no change,no change,0.78,1.46
CFAP119,SID135624929,no change,no change,0.94,0.94
ITPK1,SID56479109,no change,no change,0.05,-0.55
LINC02910,SID134322066,no change,no change,0.5,-0.11
AKR7L,SID152147081,no change,no change,0.76,0.28
CASTOR3P,SID152153971,no change (active),CA1 (caspase activation),-0.56,6.53
ALDH18A1,SID152152799,no change,no change,0.01,-0.31
CXXC5,SID152152177,no change,no change,0.04,0.12
SIX5,SID135623433,no change,no change,0.71,1.54
LSR,SID135621818,no change,no change,-1.46,1.58
WARS2,SID134314587,no change,no change,0.34,-0.32
ID4,SID134313755,no change,no change,0.18,-0.8
KRABD2,SID152147080,no change,no change,0.32,-0.76
STK39,SID152151246,no change,no change,-0.14,0.9
IFNK,SID152151562,no change,no change,-1.31,-0.58
GOLGA3,SID152156365,no change,no change,-1.36,-0.24
RXRG,SID134309896,no change,no change,0.19,-0.37
FAM114A2,SID152155335,no change,no change,-0.31,-0.13
LGALS8,SID135621970,no change,no change,-0.17,0.22
UGT2B4,SID135622678,no change,no change,-0.2,-0.5
